These are yes or no findings as the source states them, for the method shown. In cells and extracts the contact can be indirect. Some results given as binding are weak or reduced against the parent protein; the word gives no strength. For part of these data: Sequences can lack the tags named with a protein.
Experiments:
[1] = molecular target: T1, endogenous C9orf72 (human (endogenous in HEK293)) (UniProt Q96LT7); assay: co-IP; endogenous proteins of HEK293 cells; C9orf72 immunoprecipitates in NP-40 lysis buffer, protein A/G magnetic beads; western blotting with the quick western kit
T1 sequence: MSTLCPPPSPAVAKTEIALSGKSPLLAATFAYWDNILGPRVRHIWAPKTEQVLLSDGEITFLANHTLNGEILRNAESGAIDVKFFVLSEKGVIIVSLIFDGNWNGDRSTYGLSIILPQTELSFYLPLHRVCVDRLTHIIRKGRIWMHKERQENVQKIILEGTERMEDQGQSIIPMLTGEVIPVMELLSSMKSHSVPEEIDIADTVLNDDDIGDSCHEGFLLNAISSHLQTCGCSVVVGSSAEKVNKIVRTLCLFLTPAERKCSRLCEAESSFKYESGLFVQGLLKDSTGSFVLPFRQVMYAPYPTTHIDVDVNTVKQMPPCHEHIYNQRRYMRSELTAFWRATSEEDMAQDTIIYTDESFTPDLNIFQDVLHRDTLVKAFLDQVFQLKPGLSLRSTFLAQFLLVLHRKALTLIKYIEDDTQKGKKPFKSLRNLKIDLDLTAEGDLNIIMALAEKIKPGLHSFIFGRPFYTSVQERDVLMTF

By UniProt entry, the sequences of proteins in these tests, tags left out.
UniProt Q7L523: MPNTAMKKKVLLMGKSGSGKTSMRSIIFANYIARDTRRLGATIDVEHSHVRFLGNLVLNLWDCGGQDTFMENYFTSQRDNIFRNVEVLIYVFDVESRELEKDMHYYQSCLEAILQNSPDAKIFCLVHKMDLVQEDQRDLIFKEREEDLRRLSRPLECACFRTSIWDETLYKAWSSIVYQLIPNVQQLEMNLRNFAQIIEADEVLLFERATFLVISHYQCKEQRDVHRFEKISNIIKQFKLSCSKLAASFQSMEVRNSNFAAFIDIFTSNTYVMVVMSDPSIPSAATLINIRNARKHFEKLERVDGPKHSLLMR
UniProt Q8N122: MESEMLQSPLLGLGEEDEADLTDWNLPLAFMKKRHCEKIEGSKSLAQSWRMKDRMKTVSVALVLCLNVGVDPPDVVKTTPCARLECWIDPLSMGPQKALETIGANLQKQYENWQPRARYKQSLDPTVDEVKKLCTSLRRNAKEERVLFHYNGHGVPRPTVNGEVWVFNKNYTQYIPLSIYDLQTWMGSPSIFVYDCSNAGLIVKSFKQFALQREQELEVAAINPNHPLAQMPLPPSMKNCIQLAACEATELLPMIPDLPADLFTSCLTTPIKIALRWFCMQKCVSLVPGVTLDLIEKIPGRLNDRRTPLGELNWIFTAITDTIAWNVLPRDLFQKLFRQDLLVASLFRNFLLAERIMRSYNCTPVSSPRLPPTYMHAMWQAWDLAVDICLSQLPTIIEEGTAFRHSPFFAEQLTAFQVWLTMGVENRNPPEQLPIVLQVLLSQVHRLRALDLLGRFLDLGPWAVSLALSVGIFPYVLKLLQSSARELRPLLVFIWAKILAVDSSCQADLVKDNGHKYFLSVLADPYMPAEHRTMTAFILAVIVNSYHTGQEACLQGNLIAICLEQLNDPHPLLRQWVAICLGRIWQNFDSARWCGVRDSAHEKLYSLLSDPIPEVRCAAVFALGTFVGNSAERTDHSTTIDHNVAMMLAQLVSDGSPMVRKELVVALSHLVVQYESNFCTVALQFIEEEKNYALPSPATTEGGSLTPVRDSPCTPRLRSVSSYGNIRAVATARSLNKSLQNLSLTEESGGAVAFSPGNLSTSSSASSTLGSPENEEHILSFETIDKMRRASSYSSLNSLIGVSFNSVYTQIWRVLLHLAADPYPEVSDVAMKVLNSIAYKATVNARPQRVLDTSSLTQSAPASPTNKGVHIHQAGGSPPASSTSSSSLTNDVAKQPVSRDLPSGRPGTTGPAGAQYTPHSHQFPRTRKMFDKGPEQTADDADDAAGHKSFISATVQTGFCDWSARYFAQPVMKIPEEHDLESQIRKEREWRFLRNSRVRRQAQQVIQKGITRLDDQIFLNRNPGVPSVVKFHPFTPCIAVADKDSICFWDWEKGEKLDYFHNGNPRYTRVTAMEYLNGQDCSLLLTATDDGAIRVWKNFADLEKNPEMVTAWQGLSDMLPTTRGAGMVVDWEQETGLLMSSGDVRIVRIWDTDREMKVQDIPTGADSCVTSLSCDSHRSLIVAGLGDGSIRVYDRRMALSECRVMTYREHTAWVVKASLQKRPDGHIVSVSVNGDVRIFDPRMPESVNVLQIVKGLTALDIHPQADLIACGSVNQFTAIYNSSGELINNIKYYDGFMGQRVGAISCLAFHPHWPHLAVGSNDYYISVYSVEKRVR
UniProt Q9HB90: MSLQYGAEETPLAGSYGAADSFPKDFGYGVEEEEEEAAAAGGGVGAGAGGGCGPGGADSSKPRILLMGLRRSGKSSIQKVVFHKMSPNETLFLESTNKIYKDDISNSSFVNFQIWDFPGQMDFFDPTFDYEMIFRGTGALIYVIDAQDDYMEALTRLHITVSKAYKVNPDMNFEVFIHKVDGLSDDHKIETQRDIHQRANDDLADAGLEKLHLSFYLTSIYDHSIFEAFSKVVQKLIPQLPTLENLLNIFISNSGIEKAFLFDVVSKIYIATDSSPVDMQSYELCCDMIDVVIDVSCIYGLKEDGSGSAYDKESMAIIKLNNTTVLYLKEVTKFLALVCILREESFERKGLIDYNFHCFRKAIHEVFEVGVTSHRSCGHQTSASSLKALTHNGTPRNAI

C9orf72-Flag (human) = molecular target: T2, C9orf72-Flag (human) (UniProt Q96LT7); assay: co-IP; HEK293 cells co-transfected, lysates 48 hr post-transfection in NP-40 lysis buffer (20 mM Tris-HCl, 150 mM NaCl, 1% NP-40, 2 mM EDTA); IgG, anti-FLAG or anti-HA antibody overnight at 4°C, protein A/G magnetic beads; immunoblot
T2 sequence: T1 sequence

binding [1]	binding (C9orf72-Flag (human))	Substance
binds	–	endogenous RagA (from UniProt Q7L523 1-313)
–	binds	myc-Raptor (from UniProt Q8N122 1-1335)
binds	–	endogenous RagC (from UniProt Q9HB90 1-399)

From publication PMC7188304
